Results: patent publication US20250177530A1, “MOLECULES THAT BIND TO ENPP1 POLYPEPTIDES” (UNIVERSITY OF PITTSBURGH - OF THE COMMONWEALTH SYSTEM OF …, priority 2022, published 2025)
Residue numbers refer to the chain shown, from its start. These are yes or no findings as the source states them, for the method shown. A result given as binding can be weak or reduced; the word gives no strength. One block for each binder: values may come before it.

Experiments:
[1] = target: recombinant human ENPP1 extracellular domain fused with a His6-FLAG tag (human); test: ELISA, ENPP1-His coated at 50 ng/well, 3-fold serial dilutions, anti-FLAG M2-HRP detection
[2] = target: recombinant human ENPP1 extracellular domain fused with a His6-FLAG tag (human); test: BLItz biolayer interferometry, biotinylated ENPP1 on a streptavidin biosensor
[3] = target: recombinant human ENPP1 extracellular domain fused with a His6-FLAG tag (human); test: competition ELISA, biotinylated IgG1 17 detected with streptavidin-HRP in the presence of IgG1 3G12
[4] = target: recombinant human ENPP1 extracellular domain fused with a His6-FLAG tag (human); test: ELISA, ENPP1-His coated at 50 ng/well, 3-fold serial dilutions, HRP goat anti-human IgG1 Fc detection
[5] = target: recombinant human ENPP1 extracellular domain fused with a His6-FLAG tag (human); test: competition ELISA, IgG1 3G12 as unlabelled competitor of biotinylated IgG1 17

binding [1]: binds
B1: scFv 17 (scFv, not shown: small tags and cut ends)
scFv: DIQMTQSPSSLSASVGDRVTITCRASQSISSYLNWYQQKPGKAPKLLIYAASSLQSGVPSRFSGSGSGTDFTLTISSLQPEDAATYYCQQYDTFPLTFGGGTKVEIKGGGGSGGGGSGGGGSQVQLVESGGGLVKPGGSLRLSCAASGFTFSDYYMSWIRQAPGKGLEWVSYISSSGSTIYYADSVKGRFTISRDNAKNSLYLQMNSLRAEDTAVYYCAREVYYYDSSGYYTYYFDYWGQGTLVTVSS

binding [1]: binds
B2: scFv 3G12 (scFv, not shown: small tags and cut ends)
scFv: B1 scFv with A83V, T85V, D92Y, F94S, P95R, L96I, G100Q, V104L

binding [2]: binds
binding [1]: binds
B3: Fab 17 (Fab, V domains shown)
VH: QVQLVESGGGLVKPGGSLRLSCAASGFTFSDYYMSWIRQAPGKGLEWVSYISSSGSTIYYADSVKGRFTISRDNAKNSLYLQMNSLRAEDTAVYYCAREVYYYDSSGYYTYYFDYWGQGTLVTVSS
VL: DIQMTQSPSSLSASVGDRVTITCRASQSISSYLNWYQQKPGKAPKLLIYAASSLQSGVPSRFSGSGSGTDFTLTISSLQPEDAATYYCQQYDTFPLTFGGGTKVEIKR

binding [2]: binds
binding [1]: binds
B4: Fab 3G12 (Fab, V domains shown)
VH: B3 VH
VL: B3 VL with A83V, T85V, D92Y, F94S, P95R, L96I, G100Q, V104L

binding [2]: binds
binding [3]: binds
binding [4]: binds
B5: IgG1 17 (antibody, V domains shown)
VH: B3 VH
VL: B3 VL

binding [5]: binds
binding [2]: binds
binding [4]: binds
B6: IgG1 3G12 (antibody, V domains shown)
VH: B3 VH
VL: B3 VL with A83V, T85V, D92Y, F94S, P95R, L96I, G100Q, V104L
